Assay results from US12729225B2, “Non-canonical SWI/SNF complex and uses thereof” (Dana-Farber Cancer Institute, Inc., priority 2018, dated 2026).

Tested on: mSWI/SNF complexes
Assay: mSWI/SNF complex purification with HA-tagged baits and mass spectrometry (peptide counts)
Parameters: species or system human
Conditions: 293_HA-BRD7 bait purification, mass spectrometry; for Total: total peptide count per identified protein; for Unique: unique peptide count per identified protein

Molecule | Total | Unique
SERBP1 (protein, UniProt Q8NC51 2-408, looked up) SERPINE1 mRNA-binding protein …: PGHLQEGFGCVVTNRFDQLFDDESDPFEVLKAAENKKKEAGGGGVGGPGAKSAAQAAAQTNSNAAGKQLRKESQKDRKNPLPPSVGVVDKKEETQPPVALKKEGIRRVGRRPDQQLQGEGKIIDRRPERRPPRERRFEKPLEEKGEGGEFSVDRPIIDRPIRGRGGLGRGRGGRGRGMGRGDGFDSRGKREFDRHSGSDRSSFSHYSGLKHEDKRGGSGSHNWGTVKDELTESPKYIQKQISYNYSDLDQSNVTEETPEGEEHHPVADTENKENEVEEVKEEGPKEMTLDEWKAIQNKDRAKVEFNIRKPNEGADGQWKKGFVLHKSKSEEAHAEDSVMDHHFRKPANDITSQLEINFGDLGRPGRGGRGGRGGRGRGGRPNRGSRTDKSSASAPDVDDPEAFPALA | 1 | 1
IMP4 (protein, UniProt Q96G21 1-291, looked up) U3 small nucleolar …: MLRREARLRREYLYRKAREEAQRSAQERKERLRRALEENRLIPTELRREALALQGSLEFDDAGGEGVTSHVDDEYRWAGVEDPKVMITTSRDPSSRLKMFAKELKLVFPGAQRMNRGRHEVGALVRACKANGVTDLLVVHEHRGTPVGLIVSHLPFGPTAYFTLCNVVMRHDIPDLGTMSEAKPHLITHGFSSRLGKRVSDILRYLFPVPKDDSHRVITFANQDDYISFRHHVYKKTDHRNVELTEVGPRFELKLYMIRLGTLEQEATADVEWRWHPYTNTARKRVFLSTE | 1 | 1
UQCRFS1 (protein, UniProt P47985 79-274, looked up) Cytochrome b-c1 complex …: SHTDIKVPDFSEYRRLEVLDSTKSSRESSEARKGFSYLVTGVTTVGVAYAAKNAVTQFVSSMSASADVLALAKIEIKLSDIPEGKNMAFKWRGKPLFVRHRTQKEIEQEAAVELSQLRDPQHDLDRVKKPEWVILIGVCTHLGCVPIANAGDFGGYYCPCHGSHYDASGRIRLGPAPLNLEVPTYEFTSDDMVIVG | 1 | 1
SSR3 (protein, UniProt Q9UNL2 1-185, looked up) Translocon-associated protein …: MAPKGSSKQQSEEDLLLQDFSRNLSAKSSALFFGNAFIVSAIPIWLYWRIWHMDLIQSAVLYSVMTLVSTYLVAFAYKNVKFVLKHKVAQKREDAVSKEVTRKLSEADNRKMSRKEKDERILWKKNEVADYEATTFSIFYNNTLFLVVVIVASFFILKNFNPTVNYILSISASSGLIALLSTGSK | 1 | 1
PREB (protein, UniProt Q9HCU5 1-417, looked up) Guanine nucleotide-exchange …: MGRRRAPELYRAPFPLYALQVDPSTGLLIAAGGGGAAKTGIKNGVHFLQLELINGRLSASLLHSHDTETRATMNLALAGDILAAGQDAHCQLLRFQAHQQQGNKAEKAGSKEQGPRQRKGAAPAEKKCGAETQHEGLELRVENLQAVQTDFSSDPLQKVVCFNHDNTLLATGGTDGYVRVWKVPSLEKVLEFKAHEGEIEDLALGPDGKLVTVGRDLKASVWQKDQLVTQLHWQENGPTFSSTPYRYQACRFGQVPDQPAGLRLFTVQIPHKRLRQPPPCYLTAWDGSNFLPLRTKSCGHEVVSCLDVSESGTFLGLGTVTGSVAIYIAFSLQCLYYVREAHGIVVTDVAFLPEKGRGPELLGSHETALFSVAVDSRCQLHLLPSRRSVPVWLLLLLCVGLIIVTILLLQSAFPGFL | 1 | 1
